Data on 19 compounds can be found in the supplement of paper PMC12889115.

The other results are listed elsewhere or left out. These are raw signals, not scaled to a control.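 First-pass screen: polymyxin B was added at a level that permeabilizes the Salmonella outer membrane while sparing the inner membrane. DMSO wells, with and without polymyxin B, defined maximum growth. Because plates differed from one another, each plate's data were ranked separately and the compounds with the lowest OD600 were carried forward as hits.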

The subject of this test is Salmonella enterica serovar Typhimurium SL1344. Put plainly: bacterial growth OD600 after 18 h with compound and polymyxin B; higher = more bacterial growth (less inhibition). As to conditions: 50 µM, Mueller-Hinton broth.

For `CCCC1(C2CCN(C(=O)C3=CC(=O)CC(C)(C)O3)CC2)NC(=O)N(CCc2ccccn2)C1=O` (centres undefined), the “bacterial growth OD600” value (polymyxin B 0.75 µg/mL) stood at 0.797.

As to `Cc1cccc(CN2CCC(N3CCCC(C(=O)NC4CC4)C3)CC2)c1` (centres undefined), the “bacterial growth OD600” value (polymyxin B 0.75 µg/mL) was 0.79.

Turning to `COCCn1cnc2cc(NC(=O)C3CCCCC3)cc(C(=O)N3CCC(c4ccncc4)CC3)c21`, the “bacterial growth OD600” value (polymyxin B 0.75 µg/mL) was 0.817.

Consider `CCOc1cccc(CN(C)CC2CCCN(CCc3ccc(OC)cc3)C2)c1` (centres undefined), for which the “bacterial growth OD600” value (polymyxin B 1 µg/mL) is 0.836.

`O=C(CCC(=O)N1CCOc2c(cc(-c3cccnc3)cc2OCCc2cccs2)C1)c1ccc(F)cc1`: the “bacterial growth OD600” value (polymyxin B 0.75 µg/mL) amounted to 0.893.

On to `COc1ccccc1C(=O)Nc1ccnn1C1CCN(Cc2cnc(SC)nc2)CC1`, for which, for the setting “polymyxin B 1 µg/mL”, the “bacterial growth OD600” value was 0.906.

As for `COC(=O)[C@@H](NC(=O)CCC1(Cc2ccc(F)c(OC)c2)CCC(=O)N1)c1ccccc1` (some centres undefined), under “polymyxin B 0.75 µg/mL”, the “bacterial growth OD600” value worked out at 0.828.

For the compound `CCN1CCCC1CNC(=O)C1CCN(C2CCN(Cc3ccccc3C)CC2)CC1` (centres undefined), the “bacterial growth OD600” value (polymyxin B 1 µg/mL) was determined as 0.856.

As for `Cc1cccc(C(=O)Nc2nc3c(s2)C(=O)CC(C(=O)NCC2(N4CCOCC4)CCCC2)C3)c1` (centres undefined), the “bacterial growth OD600” value (polymyxin B 0.75 µg/mL) turned out to be 0.858.

`O=C(CCC1CCN(C(=O)Cc2cccc3ccccc23)CC1)NC1CC1`: the “bacterial growth OD600” value (polymyxin B 1 µg/mL) came to 0.871.

Consider `COc1ccc(C(CC(=O)NCc2ccon2)c2ccccc2)cc1` (centres undefined), for which the “bacterial growth OD600” value (polymyxin B 1 µg/mL) turned out to be 0.878.

Take `c1coc(CN2CCc3[nH]nc(-c4ccc5c(c4)OCO5)c3C2)c1`: where the note is “polymyxin B 0.75 µg/mL”, the “bacterial growth OD600” value was determined as 0.812.

As for `CCC(COC)NC(=O)c1ccc(OC)c(OC2CCN(C(C)=O)CC2)c1` (centres undefined), the “bacterial growth OD600” value (polymyxin B 1 µg/mL) came out at 0.947.

For `COc1ccc(CCN2CC(NC(=O)C3CC3)CC2=O)cc1` (centres undefined), the “bacterial growth OD600” value (polymyxin B 1 µg/mL) came out at 0.884.

Take `CC1CCN(C(=O)c2cn(CC3COc4ccccc4O3)nn2)CC1` (centres undefined): under “polymyxin B 1 µg/mL”, the “bacterial growth OD600” value is 0.799.

On to `COC1CCCN(c2ccc(C(=O)N3CCC(CCn4cccn4)CC3)cn2)C1` (centres undefined), for which the “bacterial growth OD600” value (polymyxin B 1 µg/mL) turned out to be 0.921.

For `Cc1cccc(NC(=O)CCC2CCN(C(=O)C3CC34CCCCC4)CC2)c1` (centres undefined), the “bacterial growth OD600” value (polymyxin B 1 µg/mL) turned out to be 0.009.

Consider `COCCN1C(=O)CC(CC(=O)N(C)C(C)c2nc(C)cs2)(c2ccccc2OC)C1=O` (centres undefined), for which the “bacterial growth OD600” value (polymyxin B 0.75 µg/mL) worked out at 0.884.

As for `COc1ccc(OC2CCN(C3CCCC3)CC2)c(C(=O)NCc2ccncc2C)c1`, the “bacterial growth OD600” value (polymyxin B 0.75 µg/mL) turned out to be 0.872.
